# Source: the supplement of paper PMC4604168 (melanoma cell lines)
# The list shows a part of the results. Repeats are few or missing, and single values can be far off.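 The apoptosis fraction was the count of cleaved-PARP antibody-stained nuclei relative to all DNA-stained nuclei, imaged in 1,536-well plates. Screening doses were set so most cells survived, and baseline and induced cleaved-PARP levels vary greatly across cell lines.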
# What was measured:
# Experiment in all cases: cleaved PARP positive nuclei fraction relative to DMSO control; melanoma cells; higher = more apoptosis
# Settings in all cases: library dose: low library concentration; 72 h
# [1] = system: WM115
# [2] = system: WM1716
# [3] = system: WM1745
# [4] = system: WM3526
# [5] = system: WM3619
# [6] = system: WM451Lu
SMILES,cleaved PARP positive nuclei fraction [1] [%],cleaved PARP positive nuclei fraction [2] [%],cleaved PARP positive nuclei fraction [3] [%],cleaved PARP positive nuclei fraction [4] [%],cleaved PARP positive nuclei fraction [5] [%],cleaved PARP positive nuclei fraction [6] [%]
"Cn1cnc2c(F)c(Nc3ccc(Br)cc3Cl)c(C(=O)NOCCO)cc21 [selumetinib] + Cn1c(=O)n(-c2ccc(C(C)(C)C#N)cc2)c2c3cc(-c4cnc5ccccc5c4)ccc3ncc21 [NVP-BEZ235] (first compound 0.015 µM, partner dose 0.004 µM)",144,101,113,281,129,92.2
"CN(c1ncccc1CNc1nc(Nc2ccc3c(c2)CC(=O)N3)ncc1C(F)(F)F)S(C)(=O)=O + C#Cc1cccc(Nc2ncnc3cc(OCCOC)c(OCCOC)cc23)c1 [erlotinib] (first compound 0.08 µM, partner dose 0.8 µM)",242,57.1,117,44.3,92,242
"C[C@]1(O)C[C@@H](c2nc(-c3ccc4ccc(-c5ccccc5)nc4c3)c3c(N)nccn32)C1 + COCC[n+]1c2c(n(Cc3cnccn3)c1C)C(=O)c1ccccc1C2=O [YM155] (first compound 0.4 µM, partner dose 0.0004 µM)",89.4,64.7,146,176,90.3,125
"CN(c1ncccc1CNc1nc(Nc2ccc3c(c2)CC(=O)N3)ncc1C(F)(F)F)S(C)(=O)=O + CO[C@H]1C[C@@H]2CC[C@@H](C)[C@@](O)(O2)C(=O)C(=O)N2CCCC[C@H]2C(=O)O[C@H]([C@H](C)C[C@@H]2CC[C@@H](OCCO)[C@H](OC)C2)CC(=O)[C@H](C)/C=C(\C)[C@@H](O)[C@@H](OC)C(=O)[C@H](C)C[C@H](C)/C=C/C=C/C=C/1C [everolimus] (first compound 0.08 µM, partner dose 0.02 µM)",136,62.8,112,79.2,142,182
"C[C@]1(O)C[C@@H](c2nc(-c3ccc4ccc(-c5ccccc5)nc4c3)c3c(N)nccn32)C1 + Cn1cc(/C=C2\C(=O)Nc3cccnc32)c2ccccc21 [GW441756] (first compound 0.4 µM, partner dose 0.4 µM)",70.5,66.2,116,58.7,103,28.8
"CS(=O)(=O)c1ccc(C(=O)Nc2ccc(Cl)c(-c3ccccn3)c2)c(Cl)c1 [vismodegib] + c1cc(-c2cnn3cc(-c4ccc(OCCN5CCCCC5)cc4)cnc23)ccn1 [Dorsomorphin] (first compound 1 µM, partner dose 0.4 µM)",32.3,140,122,77.4,99.4,75.2
"NC(=O)c1ccc(N(C(N)=O)c2c(F)cccc2F)nc1-c1ccc(F)cc1F + Nc1cccc2c1CN(C1CCC(=O)NC1=O)C2=O [lenalidomide] (first compound 0.4 µM, partner dose 1 µM)",80.3,1250,104,20.9,79.6,81
"C[C@@H](N)c1ccc(C(=O)Nc2ccnc3[nH]ccc23)cc1 + COc1ccc(Cl)c(Nc2nc3ccccc3nc2NS(=O)(=O)c2cccc(NC(=O)C(C)(C)N)c2)c1 [XL147] (first compound 0.4 µM, partner dose 0.8 µM)",95.9,151,155,62.3,114,105
"CC1(C)CCC(c2ccc(Cl)cc2)=C(CN2CCN(c3ccc(C(=O)NS(=O)(=O)c4ccc(N[C@H](CCN5CCOCC5)CSc5ccccc5)c(S(=O)(=O)C(F)(F)F)c4)cc3)CC2)C1 + CCCCCCCCCCCC1=C(O)C(=O)C=C(O)C1=O [Embelin] (first compound 0.4 µM, partner dose 1.2 µM)",312,809,587,99.3,105,70.3
"Cn1cnc2c(F)c(Nc3ccc(Br)cc3Cl)c(C(=O)NOCCO)cc21 [selumetinib] + N#Cc1c(O)c2c(-c3ccc(-c4ccccc4O)cc3)csc2[nH]c1=O [A769662] (first compound 0.015 µM, partner dose 2 µM)",114,47.1,89.9,89.2,108,131
"CS(=O)(=O)c1ccc(C(=O)Nc2ccc(Cl)c(-c3ccccn3)c2)c(Cl)c1 [vismodegib] + C[C@@H]1CCN(C(=O)CC#N)C[C@@H]1N(C)c1ncnc2[nH]ccc12 [CP690550] (first compound 1 µM, partner dose 1 µM)",208,69.2,95.3,124,105,132
"Cn1sc(=O)n(Cc2ccccc2)c1=O + C[C@]1(O)C[C@@H](c2nc(-c3ccc4ccc(-c5ccccc5)nc4c3)c3c(N)nccn32)C1 [OSI906] (first compound 0.4 µM, partner dose 0.4 µM)",125,177,127,49.2,190,52.6
"NC(=O)c1ccc(N(C(N)=O)c2c(F)cccc2F)nc1-c1ccc(F)cc1F + CN(c1ncccc1CNc1nc(Nc2ccc3c(c2)CC(=O)N3)ncc1C(F)(F)F)S(C)(=O)=O [PF562271] (first compound 0.4 µM, partner dose 0.08 µM)",193,112,110,94.7,101,207
"C[C@]1(O)C[C@@H](c2nc(-c3ccc4ccc(-c5ccccc5)nc4c3)c3c(N)nccn32)C1 + O=C(O)c1ccc(-c2c[nH]c3ncc(-c4ccccc4)cc23)cc1C1CCCC1 [GSK650394] (first compound 0.4 µM, partner dose 0.16 µM)",94.3,93.8,99.5,65.9,83.7,79.1
"Cn1sc(=O)n(Cc2ccccc2)c1=O + CC(=O)c1c(C)c2cnc(Nc3ccc(N4CCNCC4)cn3)nc2n(C2CCCC2)c1=O [palbociclib] (first compound 0.4 µM, partner dose 0.04 µM)",58.4,152,84,131,200,220
"C[C@@H](N)c1ccc(C(=O)Nc2ccnc3[nH]ccc23)cc1 + COc1ccc(C2=N[C@@H](c3ccc(Cl)cc3)[C@@H](c3ccc(Cl)cc3)N2C(=O)N2CCNC(=O)C2)c(OC(C)C)c1 [Nutlin-3] (first compound 0.4 µM, partner dose 0.1 µM)",163,96.2,103,83.7,97.4,63.1
"COc1ccc(C2=N[C@@H](c3ccc(Cl)cc3)[C@@H](c3ccc(Cl)cc3)N2C(=O)N2CCNC(=O)C2)c(OC(C)C)c1 [Nutlin-3] + Cn1cc(/C=C2\C(=O)Nc3cccnc32)c2ccccc21 [GW441756] (first compound 0.1 µM, partner dose 0.4 µM)",250,93.4,98.1,132,89.5,71.6
"Cn1sc(=O)n(Cc2ccccc2)c1=O + CCN(CC)CCCCNc1ncc2cc(-c3cc(OC)cc(OC)c3)c(NC(=O)NC(C)(C)C)nc2n1 [PD173074] (first compound 0.4 µM, partner dose 0.1 µM)",167,139,84,82,103,396
"CN(c1ncccc1CNc1nc(Nc2ccc3c(c2)CC(=O)N3)ncc1C(F)(F)F)S(C)(=O)=O + O=S(=O)(c1ccccc1)N(CC(F)(F)F)c1ccc(C(O)(C(F)(F)F)C(F)(F)F)cc1 [T0901317] (first compound 0.08 µM, partner dose 1.4 µM)",296,246,144,428,94.1,114
"CS(=O)(=O)c1ccc(C(=O)Nc2ccc(Cl)c(-c3ccccn3)c2)c(Cl)c1 [vismodegib] + OCCn1cc(-c2cnc3nnn(Cc4ccc5ncccc5c4)c3n2)cn1 [PF04217903] (first compound 1 µM, partner dose 1 µM)",44.2,82.1,97.7,56.7,116,112
"NC(=O)c1ccc(N(C(N)=O)c2c(F)cccc2F)nc1-c1ccc(F)cc1F + Cc1cc(N2CCOCC2)cc2[nH]c(-c3c(NC[C@@H](O)c4cccc(Cl)c4)cc[nH]c3=O)nc12 [BMS536924] (first compound 0.4 µM, partner dose 0.2 µM)",29.7,105,131,54,159,37
"CC1(C)CCC(c2ccc(Cl)cc2)=C(CN2CCN(c3ccc(C(=O)NS(=O)(=O)c4ccc(N[C@H](CCN5CCOCC5)CSc5ccccc5)c(S(=O)(=O)C(F)(F)F)c4)cc3)CC2)C1 + CNC(=O)c1cc(Oc2ccc(NC(=O)Nc3ccc(Cl)c(C(F)(F)F)c3)cc2)ccn1 [sorafenib] (first compound 0.4 µM, partner dose 0.4 µM)",266,172,392,30.2,96.8,76.3
"Cn1sc(=O)n(Cc2ccccc2)c1=O + Nc1cccc2c1CN(C1CCC(=O)NC1=O)C2=O [lenalidomide] (first compound 0.4 µM, partner dose 1 µM)",68.2,45.6,87.5,44.9,81.7,38.7
"CC(=O)O[C@@]12CO[C@@H]1C[C@H](O)[C@@]1(C)C(=O)[C@H](O)C3=C(C)[C@@H](OC(=O)[C@H](O)[C@@H](NC(=O)OC(C)(C)C)c4ccccc4)C[C@@](O)([C@@H](OC(=O)c4ccccc4)[C@H]21)C3(C)C [Docetaxel] + Nc1ccn([C@@H]2O[C@H](CO)[C@@H](O)C2(F)F)c(=O)n1 [gemcitabine] (first compound 0.0001 µM, partner dose 0.0004 µM)",294,447,178,246,127,440

# Taken from above:
# Entry of Cn1sc(=O)n(Cc2ccccc2)c1=O + CC(=O)c1c(C)c2cnc(Nc3ccc(N4CCNCC4)cn3)nc2n(C2CCCC2)c1=O [palbociclib] (first compound 0.4 µM, partner dose 0.04 µM) under cleaved PARP positive nuclei fraction [3] [%]: 84
# Entry of CS(=O)(=O)c1ccc(C(=O)Nc2ccc(Cl)c(-c3ccccn3)c2)c(Cl)c1 [vismodegib] + OCCn1cc(-c2cnc3nnn(Cc4ccc5ncccc5c4)c3n2)cn1 [PF04217903] (first compound 1 µM, partner dose 1 µM) under cleaved PARP positive nuclei fraction [6] [%]: 112
